# Measurements reported in PubChem BioAssay AID504467 (National Center for Advancing Translational Sciences (NCATS), 2011).
# The whole screen tested about 330,000 compounds, of which about 7,700 (2.3%) were called active. This list was built around the results that the source calls inconclusive (neither active nor inactive); the mix of calls is not that of the screen. Calls come from the whole dose curve; as a rule, active = well fitted inhibition curve with a large enough effect; inconclusive = small, poorly fitted or top-dose-only effect, or effect the other way; inactive = flat fitted curve, though single readings scatter. A potency beside an inconclusive call is a rough fit, not a confirmed value.
# Assay: qHTS screen for small molecules that inhibit ELG1-dependent DNA repair in human embryonic kidney (HEK293T) cells expressing luciferase-tagged ELG1; note: nearly all actives have a fitted effect of over 55% in size
# Conditions: HEK293T ELG1-luciferase reporter, luminescence, 16 h, DNA damage induced by 5-fluorouridine; activity change, negative = inhibition: at 46.1 µM (top of the series)
# Method in brief: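 Step one: seed 2,000 cells per well. Step two: pin-transfer compound or DMSO alongside 5-fluorouridine. Step three: incubate 16 hr, 37 °C, 5% CO2. Step four: add ONE-Glo, wait 30 min, read luminescence.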
# % is set by controls: 0 for no effect and ±100 for the full control effect; potency is the fitted concentration of half-maximal effect.
SMILES,Potency,"activity change, negative = inhibition"
COc1ccc(-c2csc3ncnc(N4CCN(S(=O)(=O)c5cccc(Br)c5)CC4)c23)cc1,"inconclusive: 4.61 µM [inhibitor, single point]",–
COc1ccc(/C=N/NC(=S)Nc2cccc(C(=O)O)c2)cc1,"inconclusive: 11.6 µM [activator, partial curve]",–
Cc1onc(-c2ccccc2Cl)c1C(=O)Nc1cccc(-c2cn3cccnc3n2)c1,"inconclusive: 11.2 µM [inhibitor, partial curve, poor fit]",–
CCN(CC(=O)NCCc1ccc(F)cc1)Cc1nc2ccccc2c(=O)[nH]1,–,inactive: 1.16%
O=C(N/N=C/c1ccc(Cl)cc1)c1sccc1OCc1ccc(F)cc1,"inconclusive: 7.31 µM [activator, partial curve, poor fit]",–
COc1ccccc1C(=O)NCCC(=O)N1CCN(c2cccc(C(F)(F)F)c2)CC1,–,inactive: -0.49%
CCOC(=O)C1CCCCN1C(=O)c1ccc2nc(Cc3ccc(OC)cc3)oc2c1 (stereo not drawn),–,inactive: -5.87%
COc1ccccc1C1C2CCCCC2(O)CCN1CC(=O)Nc1ccccc1 (stereo not drawn),–,inactive: -5.86%
O=C(Nc1cc(S(=O)(=O)N2CCOCC2)ccc1N1CCOCC1)c1ccc([N+](=O)[O-])s1,active: 20.6 µM,–
COc1ccc(C(=O)Nc2cccc3cccnc23)cc1OC,"inconclusive: 18.4 µM [inhibitor, single point]",–
O=C(NCc1nc2ccccc2[nH]1)C1=C[C@H](c2ccc(C(F)(F)F)cc2)C[C@H](OCc2ccc(CO)cc2)O1,"inconclusive: 13 µM [inhibitor, single point]",–
COc1ccc(N(Cc2cc3ccccc3[nH]c2=O)S(=O)(=O)c2ccc(OC)cc2)cc1,"inconclusive: 18.3 µM [inhibitor, partial curve, poor fit]",–
CN(C(=O)CC1C(=O)NCCN1Cc1ccc(F)c(F)c1)C1CCOCC1 (stereo not drawn),–,inactive: 9.65%
N#CCCn1cc(/C=N/NC(N)=S)c(-c2ccc(-c3ccccc3)cc2)n1,active: 25.9 µM,–
O=C(N/N=C/c1ccc(Br)cc1)c1cc[n+]([O-])cc1,–,inactive: 11.4%
O=[N+]([O-])c1ccccc1N/N=C/c1ccc2c(c1)OCO2,"inconclusive: 2.06 µM [activator, full curve]",–
O=C(c1ccc(Cl)cc1)C1CCN(Cc2ccccc2)CC1,–,inactive: -5.58%
CCc1c(C)sc(NC(=S)NC(C)C2CCCO2)c1C(=O)OC (stereo not drawn),"inconclusive: 16.4 µM [inhibitor, single point]",–
CCN1C/C(=C/c2cccs2)c2nc3ccccc3c(C(=O)O)c2C1,–,inactive: -8.46%
Cc1ccc(-c2noc(CCC(=O)NCCCN3CCN(c4cccc(Cl)c4)CC3)n2)cc1,"inconclusive: 29.1 µM [inhibitor, single point]",–
Cc1ccc(S(=O)(=O)CC(=O)Nc2ccc(S(=O)(=O)Nc3onc(C)c3C)cc2)cc1,–,inactive: 6.83%
Cc1nn(CC2CC2)c(=O)n1-c1ccc(F)cc1,–,inactive: 11.6%
CN1CCN(C(=O)c2cc(-c3cccc(Cl)c3)on2)CC1,"inconclusive: 18.4 µM [activator, partial curve]",–
Cc1ccccc1NC(=S)N(CCc1c(C)[nH]c2ccc(F)cc12)Cc1ccncc1,"inconclusive: 16.4 µM [inhibitor, single point]",–
COc1ccccc1NS(=O)(=O)c1cccc(NC(=O)Nc2cccc(Cl)c2)c1,"inconclusive: 13 µM [inhibitor, partial curve]",–

# Nothing new here: 2 of the compounds above.
SMILES,Potency,"activity change, negative = inhibition"
O=C(Nc1cc(S(=O)(=O)N2CCOCC2)ccc1N1CCOCC1)c1ccc([N+](=O)[O-])s1,active: 20.6 µM,–
COc1ccc(C(=O)Nc2cccc3cccnc23)cc1OC,"inconclusive: 18.4 µM [inhibitor, single point]",–

# Next structures.

SMILES,Potency,"activity change, negative = inhibition"
COc1ccc(Nc2nnc(SCC(=O)NC3CC3)s2)cc1,"inconclusive: 18.3 µM [activator, single point]",–
Cc1nc2c(C#N)c[nH]n2c(=O)c1CCO,–,inactive: 16.7%
O=C(CCNC(=O)c1ccc(Cl)cc1)NC1CCCCCC1,"inconclusive: 18.3 µM [activator, partial curve]",–
O=C(CCNS(=O)(=O)c1ccccc1)NCC1CCCCC1,–,inactive: 13.5%
Oc1ccc(/C=N/N2CCOCC2)c(O)c1O,–,inactive: -3.11%
COc1ccc(NC(=O)c2cc(=O)c3ccccc3o2)cn1,"inconclusive: 18.4 µM [inhibitor, partial curve, poor fit]",–
COc1cc(C(=S)N2CCOCC2)cc(OC)c1O,"inconclusive: 0.73 µM [activator, single point]",–
CCOc1ccc(S(=O)(=O)N2CCN(C(=O)c3cc(-c4ccccc4)nn3-c3ccccc3)CC2)cc1,"inconclusive: 23.1 µM [inhibitor, single point]",–
O=C(NC(=S)Nc1ccc2oc(=O)ccc2c1)c1ccco1,"inconclusive: 13 µM [activator, partial curve]",–
COc1cc(/C=C/C(=O)OCC(=O)N2CCN(S(=O)(=O)c3ccc(C)cc3C)CC2)cc(Cl)c1OC,"inconclusive: 29.1 µM [inhibitor, single point]",–
Oc1c(Br)cc(Br)cc1/C=N/NC(=S)N[C@H]1CC2C=CC1C2 (stereo partly drawn),"inconclusive: 18.3 µM [inhibitor, single point]",–
S=C(NCC1CCCO1)N1CCc2ccccc2C1 (stereo not drawn),"inconclusive: 14.6 µM [activator, partial curve]",–
Nc1ccccc1SCC(=O)N1CCc2ccccc21,"inconclusive: 16.4 µM [activator, partial curve]",–
COc1cc(OC)cc(C(=O)Nc2nc(CC(=O)NCc3ccccc3OC)cs2)c1,"inconclusive: 25.9 µM [inhibitor, partial curve, poor fit]",–
Cc1ccc(OCCCC(=O)Nc2nnc(C3CCCO3)s2)c(C)c1 (stereo not drawn),–,inactive: 1.39%
CC(=O)c1cccc(NC(=O)NC2CC(=O)N(c3ccc4c(c3)OCCO4)C2)c1 (stereo not drawn),"inconclusive: 18.3 µM [inhibitor, partial curve]",–
CCOc1ccc(S(=O)(=O)N2CCN(C(=O)c3sccc3C)CC2)cc1,"inconclusive: 16.4 µM [inhibitor, partial curve, poor fit]",–
Cc1[nH]nc2c1C(=O)CCC2,–,inactive: 16.1%
O=C(NC(c1ccccc1)c1cc(Cl)c2cccnc2c1O)c1cccnc1 (stereo not drawn),"inconclusive: 7.31 µM [inhibitor, partial curve, poor fit]",–
Clc1ccc(Cl)c2sc(N3CCCC3)nc12,"inconclusive: 29.1 µM [activator, partial curve, poor fit]",–
Nc1nonc1-n1nnc(C(=O)N/N=C/c2cccc(Cl)c2Cl)c1CN1CCCC1,–,inactive: 3.21%
Cc1cccc(CSc2ncc(CO)n2C)c1,–,inactive: 26.9%
Cc1cc2oc(=O)cc(CN(C)Cc3cccc(F)c3)c2cc1Cl,–,inactive: 2.36%
O=C(NC1CCCC1)C(c1ccsc1)N(Cc1ccccc1)C(=O)Cc1cccs1 (stereo not drawn),–,inactive: -7.92%
C[C@H]1CN([C@@H](C)CO)C(=O)c2cccc(NC(=O)Nc3ccc(C(F)(F)F)cc3)c2O[C@@H]1CN(C)Cc1ccc(Cl)c(Cl)c1,active: 4.61 µM,–

SMILES,Potency,"activity change, negative = inhibition"
COc1ccc(NC(=S)N=Nc2c(O)[nH]c3ccccc23)cc1,"inconclusive: 25.9 µM [inhibitor, partial curve]",–
CCOc1cc(/C=C/C(=O)c2ccc3c(c2)OCCO3)ccc1OCC(=O)N(C)C,"inconclusive: 29.1 µM [inhibitor, single point]",–
Cc1ccc(CN(C)C(=O)c2cc(COc3ccc(F)cc3Cl)on2)o1,"inconclusive: 20.6 µM [activator, partial curve]",–
CC1CC(C)CN(S(=O)(=O)c2ccc(C(=O)N(c3ccccn3)C3CCCCC3)cc2)C1 (stereo not drawn),"inconclusive: 29.1 µM [inhibitor, single point]",–
Cc1c(Nc2nc(-c3ccccc3)cs2)c(=O)n(-c2ccccc2)n1C,"inconclusive: 13 µM [activator, single point]",–
O=C(CSc1nc2ccccc2o1)N1N=C(c2cccs2)CC1c1ccc(F)cc1 (stereo not drawn),–,inactive: -20.1%
CC(C)CC(=O)Nc1nc2c(c(=O)[nH]1)CCCC2,–,inactive: 7.3%
CCOC(=O)c1cnc(SCC(=O)Nc2ccc(N3CCOCC3)c(Cl)c2)nc1N,–,inactive: -1.86%
COCC(=O)N/N=C/c1c(C)[nH]n(-c2ccccc2)c1=O,"inconclusive: 29.1 µM [inhibitor, single point]",–
COC(=O)CCC(=O)N1CCCC(N2CCN(c3cccc(C(F)(F)F)c3)CC2)C1 (stereo not drawn),–,inactive: -8.25%
O=C(NN=C1CCCCCC1)c1cn(-c2ccccc2)nc1-c1ccccc1,–,inactive: -11.9%
COc1ccc(NCc2nnc(SCC(=O)Nc3ccc(OC)cc3)n2C)cc1,"inconclusive: 32.6 µM [activator, partial curve, poor fit]",–
CC(=O)c1cccc(NC(=O)c2ccc3c(c2)CCCC3)c1,"inconclusive: 2.31 µM [activator, partial curve]",–
Cc1ccc(NC(=O)/C=C\C(=O)NCC(=O)O)cc1,–,inactive: 1.93%
Cc1cc(NC(=O)Cc2ccccc2[N+](=O)[O-])no1,–,inactive: -1.24%
CCC(CO)Oc1cc(NCc2cccc(O)c2)c2ncn(C(C)C)c2c1 (stereo not drawn),–,inactive: -27.2%
CC(C)CC(=O)NS(=O)(=O)c1ccc(NS(C)(=O)=O)cc1,–,inactive: 0.423%
CCOC(=O)c1ccc(NC(=O)Nc2ccon2)cc1,"inconclusive: 14.6 µM [activator, partial curve]",–
Cc1cccc(N=N/C(=C\O)C(=O)c2cccs2)c1,active: 20.6 µM,–
Cc1cc2n(n1)SC(Nc1ccc(F)cc1)N2 (stereo not drawn),"inconclusive: 25.9 µM [activator, single point]",–
COc1ccc(COC(=O)NC2CCN(S(=O)(=O)c3ccc(OC)cc3)CC2)cc1,"inconclusive: 14.1 µM [inhibitor, partial curve, poor fit]",–
Nc1nc(NCCc2ccccc2)nc(NCc2ccccc2)c1[N+](=O)[O-],"inconclusive: 11.6 µM [inhibitor, partial curve, poor fit]",–
CC1(C)CC(=O)C2=C(C1)OC(N)=C(C#N)C2c1cn(-c2ccccc2)nc1-c1ccc(F)cc1 (stereo not drawn),"inconclusive: 20.6 µM [activator, partial curve]",–
